Measurements reported in PubChem BioAssay AID652259 (Drosophila RNAi Screening Center, 2013)

Screen: 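Knock-downs that push a Wingless-driven reporter up or down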 (primary screen)
Cell system: Drosophila clone 8 imaginal disc epithelial cells
Reagents: long dsRNA against Drosophila genes
Treatment: pathway stimulated by co-transfected Wingless expression plasmid
Read-out: 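Dual luciferase reads per well after Wingless plasmid stimulation: reporter firefly light and Renilla control light; activity is firefly divided by Renilla, a ratio not deposited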
Reading the numbers: firefly reporter light: higher = more Wg reporter light, before normalisation; Renilla control light: higher = more transfected or surviving cells
Rule for the call: 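Strong candidates differ from their plate mean by at least two out of four per-plate statistical tests; weak candidates meet just one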
Calls: active = candidate regulator (raises or lowers reporter); inactive = not a candidate
In all, the deposit lists about 22,000 reagents; shown is a random part of those with a known target gene and a result. Of all reagents, 233 (1.1%) got an active call. 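Light values are raw, unnormalised plate reads; the ratio scores behind the reporter calls were not deposited.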 The numbers tell different reagents against one gene apart. Names joined by + are all predicted targets of the reagent. No sequences are given here. Not given: the amount of reagent, the time to read-out, the dose of the treatment.

| gene knocked down | reagent | reporter change call, replicate 1 | firefly reporter light, replicate 1 | firefly reporter light, replicate 2 | Renilla control light, replicate 1 | Renilla control light, replicate 2 | outcome |
| --- | --- | --- | --- | --- | --- | --- | --- |
| Ufl1 | 1 | – | 4874 | – | 1794 | – | inactive |
| brm | 1 | – | 11120 | – | 2000 | – | inactive |
| cm + Inx7 | 1 | – | 1525 | 5095 | 715 | 1877 | inactive |
| Gr47a | 1 | – | 2363 | 6950 | 537 | 2352 | inactive |
| CG16710 | 1 | – | 15744 | – | 11777 | – | inactive |
| Cyp6a20 | 1 | – | 13648 | – | 3917 | – | inactive |
| CG12182 | 1 | – | 14570 | – | 4096 | – | inactive |
| CG42792 | 1 | – | 22948 | – | 9600 | – | inactive |
| beat-Vb | 1 | – | 3945 | – | 485 | – | inactive |
| beat-Vb | 2 | – | 3156 | – | 1349 | – | inactive |
| beat-Vb | 3 | – | 18121 | – | 6056 | – | inactive |
| bap | 1 | – | 4938 | – | 1771 | – | inactive |
| CG6337 | 1 | – | 10123 | – | 3843 | – | inactive |
| CG6337 | 2 | – | 4.63e5 | 4.23e5 | 2.32e5 | 2.35e5 | inactive |
| Spn31A | 1 | – | 1357 | 6179 | 851 | 3429 | inactive |
| e(y)3 | 1 | – | 1416 | 4432 | 1063 | 2515 | inactive |
| cic | 1 | – | 18234 | – | 1979 | – | inactive |
| cic | 2 | Wg reporter activity raised | 16256 | – | 1408 | – | active |
| cic | 3 | Wg reporter activity lowered | 3989 | – | 3430 | – | active |
| cic | 4 | – | 19765 | – | 8960 | – | inactive |
| Orco | 1 | – | 14237 | – | 2361 | – | inactive |
| CG31735 | 1 | – | 17655 | – | 7798 | – | inactive |
| DCTN1-p150 | 1 | – | 5428 | – | 2269 | – | inactive |
| CG15211 | 1 | – | 21946 | – | 11248 | – | inactive |
| CG11436 | 1 | – | 2467 | 5440 | 1195 | 1824 | inactive |
| CG15120 | 1 | – | 6152 | – | 2017 | – | inactive |
| CG11384 | 1 | – | 19572 | – | 13379 | – | inactive |
| CG15408 | 1 | – | 2181 | 7105 | 1056 | 1964 | inactive |
| X11L | 1 | – | 4150 | 11027 | 1547 | 4016 | inactive |
| X11L | 2 | – | 20807 | – | 9803 | – | inactive |
| ey | 1 | – | 28311 | – | 11467 | – | inactive |
| ACC | 1 | – | 1520 | 4672 | 276 | 1080 | inactive |
| ACC | 2 | – | 7297 | – | 2066 | – | inactive |
| Obp56i | 1 | – | 15986 | – | 13730 | – | inactive |
| CG13055 | 1 | – | 7495 | – | 3590 | – | inactive |
| vnd | 1 | – | 5112 | – | 2299 | – | inactive |
| vnd | 2 | – | 21607 | – | 17477 | – | inactive |
| vnd | 3 | – | 7.55e5 | 7.25e5 | 3.71e5 | 3.24e5 | inactive |
| Pex23 | 1 | – | 5095 | – | 1341 | – | inactive |
| Pex23 | 2 | – | 9946 | – | 4196 | – | inactive |
| Amy-p | 1 | – | 4809 | – | 1817 | – | inactive |
| Der-2 | 1 | – | 15922 | – | 4122 | – | inactive |
| Hsp70Bc | 1 | – | 11793 | – | 3173 | – | inactive |
| CG9192 | 1 | – | 3513 | – | 1773 | – | inactive |
| Sp212 | 1 | – | 5.04e5 | 4.86e5 | 1.77e5 | 1.74e5 | inactive |
| CG14762 | 1 | – | 19154 | – | 10488 | – | inactive |
| CG14762 | 2 | – | 3274 | 6117 | 982 | 2289 | inactive |
| Sbf | 1 | – | 6087 | – | 2577 | – | inactive |
| CG42749 | 1 | – | 24297 | – | 11099 | – | inactive |
| CG42749 | 2 | – | 13692 | – | 6997 | – | inactive |
